pEC50: −log10 of the molar value. Structures can show the parent of a compound that is named as a salt. Some results were stated once for a whole list of compounds, not compound by compound. Some ranges recur; such a range may be that of the whole group of compounds.
tested on: OGA (O-GlcNAcylated protein level) in rat PC-12 cells; assay: Cellular OGA activity: O-GlcNAcylated protein ELISA (RL-2 antibody) in PC-12 cells; assay type: cell-based; conditions: 24 h treatment, RL-2 ELISA, read-out: EC50 (increase of O-GlcNAcylated protein)

pEC50, 6.00 to 9.00:
CC(=O)N[C@H]1CN2/C(=N/Cc3cccc4ccccc34)SC[C@@H]2[C@@H](O)[C@@H]1O [Compound 5, 2-Acetamido-5-N,6-S-(N′-1-naphthylmethyliminomethylidene)-1,2-dideoxy-6-thionojirimycin Hydrochloride]
CCC(=O)N[C@H]1CN2/C(=N/Cc3ccc4[nH]ccc4c3)SC[C@@H]2[C@@H](O)[C@@H]1O [Compound 15, 2-Propionamido-5-N,6-S-(N′-5-indolylmethyliminomethylidene)-1,2-dideoxy-6-thionojirimycin hydrochloride]
CCC(=O)N[C@H]1CN2/C(=N/Cc3cccc4ccccc34)SC[C@@H]2[C@@H](O)[C@@H]1O [Compound 14, 2-Propionamido-5-N,6-S-(N′-1-naphthylmethyliminomethylidene)-1,2-dideoxy-6-thionojirimycin hydrochloride]
CC(=O)N[C@H]1CN2/C(=N/Cc3cccc(CN=[N+]=[N-])c3)SC[C@@H]2[C@@H](O)[C@@H]1O [Compound 10, 2-Acetamido-5-N,6-S-(N′-m-azidomethylbenzyliminomethylidene)-1,2-dideoxy-6-thionojirimycin Hydrochloride]
CC(=O)N[C@H]1CN2/C(=N/Cc3ccccc3CN=[N+]=[N-])SC[C@@H]2[C@@H](O)[C@@H]1O [Compound 9, 2-Acetamido-5-N,6-S-(N′-o-azidomethylbenzyliminomethylidene)-1,2-dideoxy-6-thionojirimycin Hydrochloride]
CCCCN=C1SCC2C(O)C(O)C(NC(C)=O)CN12 (stereo not drawn) [Compound 1, 2-Acetamido-5-N,6-S-(N′-butyliminomethylidene)-1,2-dideoxy-6-thionojirimycin Hydrochloride]
CC(=O)N[C@H]1CN2/C(=N/Cc3ccccc3)SC[C@@H]2[C@@H](O)[C@@H]1O [Compound 4, 2-Acetamido-5-N,6-S-(N′-benzyliminomethylidene)-1,2-dideoxy-6-thionojirimycin Hydrochloride]
CC(=O)N[C@H]1CN2/C(=N/CCc3ccccc3)SC[C@@H]2[C@@H](O)[C@@H]1O [Compound 12, 2-Acetamido-5-N,6-S-(N′-2-phenylethyliminomethylidene)-1,2-dideoxy-6-thionojirimycin Hydrochloride]
CC(=O)N[C@H]1CN2/C(=N/Cc3ccc(CN=[N+]=[N-])cc3)SC[C@@H]2[C@@H](O)[C@@H]1O [Compound 11, 2-Acetamido-5-N,6-S-(N′-p-azidomethylbenzyliminomethylidene)-1,2-dideoxy-6-thionojirimycin Hydrochloride]
CCCCCCCCN=C1SCC2C(O)C(O)C(NC(C)=O)CN12 (stereo not drawn) [Compound 2, 2-Acetamido-1,2-dideoxy-5-N,6-S-(N′-octyliminomethylidene)-6-thionojirimycin Hydrochloride]
CCC(=O)N[C@H]1CN2/C(=N/Cc3ccccc3)SC[C@@H]2[C@@H](O)[C@@H]1O [Compound 13, 2-Propanamido-5-N,6-S-(N′-benzyliminomethylidene)-1,2-dideoxy-6-thionojirimycin Hydrochloride]

Reference: patent US20230391796A1, “GLYCOSIDASE INHIBITORS AND USES THEREOF” (UNIVERSIDAD DE SEVILLA (US) -UNIVERSITY OF SEVILLE (US), priority 2020, published 2023)
